86 sequences from the supplement of paper PMC3334620 can be followed below.

Over roughly 33,000 sequences, “E-score (-0.5 to 0.5)” has its median near -0.016; the highest 2% begin near 0.3. Some of the results follow.

This assay has as its target T1, Yer184c (UniProt P39961).
T1 sequence: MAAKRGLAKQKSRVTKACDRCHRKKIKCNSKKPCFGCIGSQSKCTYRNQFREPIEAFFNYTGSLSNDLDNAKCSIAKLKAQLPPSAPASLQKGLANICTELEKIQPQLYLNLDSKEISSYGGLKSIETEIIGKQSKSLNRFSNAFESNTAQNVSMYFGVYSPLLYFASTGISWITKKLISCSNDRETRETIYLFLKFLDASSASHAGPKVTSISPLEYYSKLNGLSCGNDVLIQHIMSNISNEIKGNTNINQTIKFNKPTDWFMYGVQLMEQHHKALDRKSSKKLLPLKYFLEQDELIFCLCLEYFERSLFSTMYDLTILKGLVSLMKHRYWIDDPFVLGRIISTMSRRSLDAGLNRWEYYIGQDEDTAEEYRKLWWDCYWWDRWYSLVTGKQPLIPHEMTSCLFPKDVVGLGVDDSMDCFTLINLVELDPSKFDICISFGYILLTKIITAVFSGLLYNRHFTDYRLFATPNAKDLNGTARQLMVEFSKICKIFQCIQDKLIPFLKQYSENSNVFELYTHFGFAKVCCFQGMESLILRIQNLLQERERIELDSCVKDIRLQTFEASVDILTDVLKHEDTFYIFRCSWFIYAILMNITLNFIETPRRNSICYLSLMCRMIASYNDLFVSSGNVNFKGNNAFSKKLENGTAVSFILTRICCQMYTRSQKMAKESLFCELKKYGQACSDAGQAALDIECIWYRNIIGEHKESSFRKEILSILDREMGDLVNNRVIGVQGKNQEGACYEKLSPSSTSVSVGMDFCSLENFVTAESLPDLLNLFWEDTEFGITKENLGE
The assay is described as follows: PBM E-score (8-mer binding enrichment) (E-score (-0.5 to 0.5)); higher = stronger / more preferred TF binding. Particulars: protein concentration: 100 nM; construct: GST-full length. The protocol: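 Universal 'all 10-mer' protein binding microarrays (Agilent AMADID 015681) probed with GST-tagged S. cerevisiae TFs (full-length or DBD) made by in vitro transcription/translation (PURExpress), about 100-200 nM. Bound TF was detected with fluorescent anti-GST. Each ungapped 8-mer (which stands for itself and its reverse complement) is scored by the PBM enrichment score (E-score), a modified Wilcoxon-Mann-Whitney statistic from -0.5 to +0.5, computed with the Universal PBM Analysis Suite. Scale: above 0.35 generally sequence-specific binding.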
As to AGCCGATG, the “PBM E-score” value was 0.131.
ACGGAGAT: the “PBM E-score” value came out at 0.225.
Consider TTTCGAAA, for which the “PBM E-score” value is 0.117.
For ACCGAATC the value was 0.238; for CTGCCACC, -0.305; for ACAAGCGC, -0.116.
For TGTAGACA the value was 0.0631; for CATGATAA, 0.0911; for CGGCTCAG, 0.337.
The value for CTGTTCTA was 0.0812.
Consider ACGCATAG, for which the “PBM E-score” value was -0.204.
For ATCGTGTA the value was 0.0872.
On to CTCGGAAC, for which the “PBM E-score” value came out at 0.358.
The value for ACGCATCT was 0.0571; that for GCATGTCC was -0.0656.
For CAGTCGCA the value was -0.215; for CCCGGGTC, 0.202; for AGCGCGGC, 0.0107.
The value for CGGGTAAA was 0.215.
For the sequence CTACTCTA, the “PBM E-score” value was determined as 0.0455.
For CGATTAAA the value was 0.243.
The value for GATCTGAC was -0.0541.
For ATTTGGTA the value was 0.188; for AAGTGGTA, -0.163; for ATTTTTGA, 0.164.
Consider AGGGCTCG, for which the “PBM E-score” value is -0.143.
The value for CCTCACCA was -0.239; that for AAGAAATG was 0.227.
The value for ACCGAGGG was -0.168; that for GTCGCTAA was 0.013; that for ATATTATG was 0.261.
The value for ATATGCAA was 0.0547; that for CTGGTCCC was -0.353; that for CCAACGAG was -0.255.
Turning to AACTATTA, the “PBM E-score” value was found to be 0.126.
For ACTTAATG the value was -0.0208; for AGCGTTCC, 0.0949.
As for GATTAATC, the “PBM E-score” value came out at 0.299.
For CTATTGAG the value was -0.125; for CATCCTCG, 0.127; for ACGTACTC, -0.0207.
For CCCTATAA the value was -0.216; for CGATCCTC, -0.18; for TCCATAAA, 0.0466.
The value for AAGGCAGA was -0.221.
Regarding CTCTGGTC, the “PBM E-score” value is -0.0844.
For the sequence GTCTCCAC, the “PBM E-score” value was -0.11.
For GATCCAGA the value was 0.164; for CAGCGATA, -0.0107.
For AGATAATC the value was 0.13.
For the sequence AATGGTTA, the “PBM E-score” value was -0.0173.
For CCACGCCG the value was -0.00749.
For ATCGAGAC, the “PBM E-score” value was 0.0367.
The value for AGCCATAT was -0.0325; that for ATCGTGCA was -0.0208; that for CAGGTTCA was -0.21.
For CTGGACTA the value was -0.172; for CCAAGGAG, -0.18.
For CGTGTGAA the value was -0.03; for GCGATCTA, 0.0904; for CTCCTCGA, -0.108.
Regarding ACGGACAC, the “PBM E-score” value was found to be 0.152.
For CAACACGG the value was 0.135; for CTTCGCGC, 0.158.
On to CCAACTAC, for which the “PBM E-score” value is -0.0221.
The value for CCGCTCAG was -0.115.
For TATTAATA the value was -0.00461; for CCATCGAG, 0.0671.
For AAGACTAT the value was -0.0552; for AAGATTCA, 0.0804; for GACACAGA, 0.08.
Regarding CAGCCTAA, the “PBM E-score” value was -0.117.
For AAGGGACT the value was -0.172; for ACTCTCTC, 0.00201.
With ATGCGTTG, the “PBM E-score” value was -0.00373.
Turning to ACTGTTTG, the “PBM E-score” value was -0.015.
For AGTATACA the value was 0.116.
The value for GACTTAAA was 0.0439; that for ACTTTGGA was 0.0736.
The value for CTGGGAAC was -0.0861; that for GGTTTAAC was 0.0515.
For GCATCCAC, the “PBM E-score” value was -0.0329.
For CAACATAC the value was 0.113.
For GAGTGCGA the value was -0.032; for CTTAAGCC, 0.0119.
For ACTTCACA the value was 0.00662.
